The nature of the test: qHTS Assay for Lipid Storage Modulators in Drosophila S3 Cells.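 On cell number change: cells counted by Cell Tracker Red CMTPX staining in the red channel.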 The settings on record: BODIPY lipid droplet fluorescence, 18-24 h; for cell number change: measured here: cell count max response, cells fed with added oleic acid. In short, it runs like this:
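Laser-scanning cytometry quantifies lipid droplet accumulation (500–530 nm total intensity; droplet/cell object ratio) in oleic acid-fed (400 uM added) Drosophila S3 cells treated with a concentration series. 20 uM Triacsin C defined 100% inhibition.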

[1] abbreviates: measured here: cell number channel AC50, cells fed with added oleic acid.
The mark [2] stands for this setting: measured here: lipid fluorescence (Fed channel) AC50, cells fed with added oleic acid.

Some of the results follow. Further columns of the screen follow, without active or inactive calls. Compounds called inactive in the main read-out are mostly missing here. Words in brackets tell the shape of the fitted curve; partial curves, single points and poor fits give uncertain potencies.

The term AC50 denotes the midpoint of the concentration-response curve, whichever way the signal moves.

Turning to `CCC1(C)NC(=O)N(CC(=O)N2CCC(Cc3ccccc3)CC2)C1=O` (centres undefined), the cell number change is 36.3%. Moreover, the AC50 under setting [1] is 25.9 µM [rising, single point]. In addition, the AC50 under setting [2] is 0.82 µM [falling, partial curve].

Regarding `CC(C)CCNC(=S)NC1CCCC1`, the AC50 under setting [2] was 29.1 µM [rising, single point].

As to `O=C1CSCN1c1cc(Cl)ccc1Cl`, the cell number change worked out at 18.2%. Further, the AC50 under setting [1] was 3.66 µM [falling, partial curve].

Consider `COc1ccc(Cl)cc1Nc1ncnc2sc(C)c(S(=O)(=O)N3CCC(C)CC3)c12`, for which the cell number change is -2.36%. The AC50 under setting [2] was 36.6 µM [rising, partial curve, poor fit].

Turning to `COc1ccc(C(=O)COC(=O)CSCc2c(C)noc2C)cc1OC`, the cell number change was -1.75%.

As to `CCOC(=O)c1cc2c(ccn2C)n1CC(=O)N(Cc1ccccc1)c1ccc(F)cc1`, the cell number change is -14%. Also, the AC50 under setting [2] was 29.1 µM [falling, single point].

With `Cc1nc(NCc2ccccc2)c2cc[nH]c2n1`, the cell number change was -13.3%. Moreover, under setting [2], the AC50 is 0.259 µM [rising, full curve].

In the case of `Cc1ccc(NC(=O)c2cccc(S(=O)(=O)N(C)C3CCCCC3)c2)nc1`, under setting [2], the AC50 was 0.651 µM [rising, single point].

For the compound `CC(/C=C/c1ccccc1)=N\Nc1nc(C)cc(C)n1`, the cell number change is 35.4%. Moreover, under setting [1], the AC50 is 0.82 µM [rising, full curve, poor fit]. Under setting [2], the AC50 is 0.731 µM [rising, full curve].

Turning to `COc1ccc([C@]23Cc4cc(OC)c(OC)cc4C(O2)c2c(c4ccccc4oc2=O)O3)cc1`, the cell number change came to 2.33%.

With `O=C1CCCN1CN(C(=O)c1ccccc1)c1ccccc1`, the cell number change was -15.4%.

As for `COc1ccc(NC(=S)N2CCC(c3ccccc3)C2)cc1` (centres undefined), the cell number change stood at 39.8%. Moreover, the AC50 under setting [2] is 11.6 µM [rising, partial curve].

As to `Cc1ccc2oc(=O)n(CC(=O)OC(C)C)c2c1`, the cell number change worked out at 2.46%. The AC50 under setting [1] was 2.31 µM [rising, partial curve].

Regarding `CC(C)c1ccc(Nc2nnc(SCC(=O)Nc3ncc(S(=O)(=O)c4ccc([N+](=O)[O-])cc4)s3)s2)cc1`, the cell number change stood at 50.6%. Moreover, the AC50 under setting [1] was 0.184 µM [rising, full curve].

Regarding `COc1ccc(NC(=O)c2c(Nc3ccccc3)sc(C(=O)c3ccc(F)cc3)c2N)cc1`, the cell number change was -40.7%. Under setting [1], the AC50 was 16.4 µM [falling, single point]. Besides, under setting [2], the AC50 is 20.6 µM [falling, single point].

With `O=C(CSc1cccc(C(F)(F)F)c1)NC(=O)NCc1ccco1`, the cell number change is -12.8%. For the same compound, the AC50 under setting [2] is 0.461 µM [rising, single point].

As for `O=C(CNC(=O)c1ccc(Br)o1)Nc1ccccc1`, the cell number change is 7.72%.

For `COCCn1c(SCC(=O)Nc2ccccc2OC)nc2ccccc21`, the cell number change came to 42.2%. Moreover, the AC50 under setting [1] was 29.1 µM [rising, single point]. The AC50 under setting [2] is 5.8 µM [rising, partial curve].

Consider `O=C(c1cccc(S(=O)(=O)N2CCCC2)c1)N1CCN(c2ccccc2F)CC1`, for which the cell number change is 14.2%.

Turning to `O=C1CSC(c2cn(-c3ccccc3)nc2-c2cccs2)N1Cc1ccccc1` (centres undefined), the cell number change was found to be 109%. Also, the AC50 under setting [1] was 23.1 µM [rising, single point]. Moreover, the AC50 under setting [2] was 20.6 µM [rising, partial curve].

As for `O=C(Nc1cccc2c1C(=O)NC2=O)c1cccnc1Cl`, the cell number change turned out to be 26.9%.

As to `Cc1ccc(S(=O)(=O)CCC(=O)OCC(=O)NC(=O)c2ccccc2)cc1`, the cell number change is -23%. Moreover, the AC50 under setting [2] is 29.1 µM [falling, single point].

On to `COCCNC(=O)C(c1ccc(C)cc1)N(Cc1ccco1)C(=O)CCC(=O)Nc1ccccn1` (centres undefined), for which the cell number change is 22.7%. The AC50 under setting [2] was 6.51 µM [rising, single point].

In the case of `COc1ccc(C[C@H]2CN3C(=NC[C@@H]3Cc3ccccc3)N2CCNC(=O)c2ccc(C)c(Br)c2)cc1`, the cell number change was -66.3%. For the same compound, the AC50 under setting [1] is 29.1 µM [falling, single point].

With `N#CCC(=O)N/N=C/c1ccc(N2N=C(c3ccccc3)CC2c2ccccc2)cc1` (centres undefined), the cell number change turned out to be 263%. The AC50 under setting [1] is 13 µM [rising, partial curve]. Moreover, under setting [2], the AC50 is 14.6 µM [falling, partial curve].

In the case of `O=C(COC(=O)c1cccc(O)c1)NC(=O)Cc1ccccc1`, the cell number change is -10.3%. Under setting [2], the AC50 is 0.259 µM [falling, full curve, poor fit].

Consider `Cc1nn(-c2ccccc2)c(C)c1C(=O)NCCc1ccccc1`, for which the cell number change amounted to 3.95%.

Regarding `NC(=O)[C@@H]1CCNc2c(I)cc([N+](=O)[O-])cc2C(=O)N[C@@H](CO)C(=O)N[C@@H](Cc2ccc(O)cc2)C(=O)N1`, the cell number change came to 4.87%. The AC50 under setting [2] is 0.92 µM [rising, full curve, poor fit].

Take `CC1=NN2C(=N)/C(=C\c3cc(C)n(-c4ccccc4)c3C)C(=O)N=C2S1`: the cell number change is -43%. The AC50 under setting [1] was 10.3 µM [falling, partial curve, poor fit]. Further, the AC50 under setting [2] was 29.1 µM [falling, single point].

Turning to `CCn1c(SCC(=O)Nc2ccc3c(c2)OCO3)nc2c(c1=O)SC(C)C2` (centres undefined), the cell number change turned out to be 12.2%. The AC50 under setting [1] is 0.517 µM [rising, full curve, poor fit]. Besides, the AC50 under setting [2] was 4.11 µM [rising, partial curve].

On to `CCc1cccc(NC(=S)N(CCOC)C(C)c2ccco2)c1` (centres undefined), for which the cell number change is 19%. Further, the AC50 under setting [2] is 32.6 µM [rising, partial curve, poor fit].

For `Cc1c(Cl)cccc1N(CC(=O)NC1CCCCC1)S(C)(=O)=O`, the cell number change was -4.14%. Also, the AC50 under setting [2] is 14.6 µM [falling, partial curve, poor fit].

On to `COc1ccc(-c2cc(-c3ccc(Cl)cc3)n[nH]2)c(O)c1`, for which the cell number change is -20.1%. Besides, the half-maximal activity concentration (AC50) under setting [2] was 10.3 µM [falling, partial curve].

Consider `N#C/C(=C/c1ccc(N2CCCCCC2)o1)c1cccc(F)c1`, for which the cell number change was -33.1%. In addition, under setting [2], the AC50 was 29.1 µM [falling, single point].

On to `COC(=O)c1ccc(CNC(=O)COC(=O)CCC2CCCC2)cc1`, for which the cell number change worked out at 0.264%. The AC50 under setting [1] is 2.91 µM [falling, partial curve]. Moreover, the AC50 under setting [2] was 2.06 µM [rising, partial curve].

Consider `Cc1ccc(O)c(-c2cc3ccccc3[nH]2)c1`, for which the cell number change was -123%. For the same compound, under setting [2], the AC50 is 23.1 µM [falling, single point].

Turning to `COc1ccccc1CNC(=O)CCS(=O)(=O)c1cccc2nonc12`, the cell number change is -0.785%.

Regarding `COc1ccccc1NS(=O)(=O)c1cc(C(=O)N2CCN(C/C=C/c3ccccc3)CC2)ccc1C`, the cell number change came out at 21.1%.

`Cc1ccccc1CC(=O)N1CCN(S(=O)(=O)c2cccs2)CC1`: the cell number change amounted to 39%. In addition, the AC50 under setting [2] is 11.6 µM [rising, partial curve].

In the case of `CC(=O)Nc1ccc(NC(=O)c2c(-c3ccccc3)noc2C)cn1`, the cell number change turned out to be 30.6%. Besides, the AC50 under setting [1] is 29.1 µM [rising, single point].

`COC(=O)c1c(C)[nH]c(C(=O)COC(=O)CCNS(=O)(=O)c2cccc(C(F)(F)F)c2)c1C`: the cell number change is -2.89%.

In the case of `Cc1ccc(C(C)NC(=O)Cc2cccs2)cc1C` (centres undefined), the cell number change is 12.4%. Further, the AC50 under setting [2] is 0.13 µM [falling, full curve, poor fit].

Turning to `Cc1ccc(S(=O)(=O)NCCC(=O)OCC(=O)N(Cc2ccccc2)C(C)(C)C)cc1C`, the cell number change was found to be 16.8%.

For the compound `O=C(COc1nc2ccccc2nc1N1CCOCC1)NC1CCCCC1`, the AC50 under setting [1] is 0.517 µM [rising, partial curve, poor fit].

Consider `Cc1ccc(NC(=O)Cc2ccccc2F)cc1S(=O)(=O)N1CCCCCC1`, for which the cell number change is -0.112%.

For `Nc1c(C(=O)NCc2ccco2)c2nc3ccccc3nc2n1CCc1ccccc1`, the cell number change is -15.2%. Under setting [1], the AC50 was 1.3 µM [rising, partial curve]. In addition, the AC50 under setting [2] is 1.64 µM [rising, partial curve].

With `O=Cc1c(NCc2ccccc2F)c2ccccc2[nH]c1=O`, the cell number change was -7.42%.

`O=S(=O)(NCc1cccnc1)c1cc(Cl)ccc1Cl`: the cell number change was found to be 13.5%. The AC50 under setting [2] is 0.651 µM [falling, single point].

For the compound `COc1ccc(N2C(=NC(=O)C3CCCO3)SC3CS(=O)(=O)CC32)cc1` (centres undefined), the cell number change is -11.9%. In addition, the AC50 under setting [2] is 29.1 µM [falling, single point].

For `CCOC(=O)c1c(NC(=O)C2CCN(S(=O)(=O)c3cccs3)CC2)sc(C)c1C`, the cell number change is -7.22%.

In the case of `CC1CC(C)(C)Nc2ccc(N=O)cc21` (centres undefined), the cell number change was -92.3%. Besides, under setting [1], the AC50 is 16.4 µM [falling, partial curve]. The AC50 under setting [2] was 20.6 µM [falling, partial curve].

For `COc1ccc(CSc2nc(C)[nH]c2[N+](=O)[O-])cc1[N+](=O)[O-]`, the AC50 under setting [2] was 10.3 µM [rising, partial curve].

Consider `COc1ccccc1NC(=O)CSc1nnc(-c2ccc(C)cc2)o1`, for which the cell number change is 32.6%. The AC50 under setting [1] was 8.2 µM [rising, partial curve, poor fit].

For the compound `CC1(C)CN(c2ccc(N3CC(C)(C)C3=O)cc2)C1=O`, the cell number change amounted to 28.5%. Under setting [2], the AC50 is 6.51 µM [falling, single point].

Consider `Cc1cccc(N2CC(c3nc4ccccc4[nH]3)CC2=O)c1` (centres undefined), for which the cell number change is 21.7%. Besides, under setting [2], the AC50 is 6.51 µM [rising, single point].

With `CCC(C)(C)NC(=O)C(c1ccc(O)cc1)N(Cc1ccco1)C(=O)CCC(=O)Nc1ccccn1` (centres undefined), the cell number change is -1.68%. For the same compound, under setting [2], the AC50 is 0.206 µM [rising, single point].

With `CSCCC(NS(=O)(=O)c1ccc(C)cc1)C(=O)NCCc1c[nH]c2ccccc12` (centres undefined), the cell number change is 23.5%. Besides, under setting [2], the AC50 is 4.61 µM [rising, partial curve].

As for `Cc1c(C)n(-c2ccccc2)c2ncnc(NCCN(C)C)c12`, the cell number change is -4.33%. Under setting [2], the AC50 was 0.058 µM [falling, full curve, poor fit].

Take `CCNc1nc(NCC)n2c(SCC(=O)Nc3c(C)cccc3C)nnc2n1`: the cell number change stood at 8.33%.

As for `Cc1ccc(CNC(=O)c2ccc(N3CCC4(CC3)CC(c3ccccc3)=NO4)c(NC(=O)c3ccc(Cl)c([N+](=O)[O-])c3)c2)cc1`, the cell number change was -19.6%.

As to `O=C(C1CCC1)N1CCN(c2ccc(Cl)cc2)CC1`, the cell number change is -7.41%.

`CC(=O)c1ccc(OCc2cc(C(=O)NCCc3ccc(Cl)cc3)no2)cc1`: the cell number change came to 46.2%. Moreover, the AC50 under setting [1] was 5.17 µM [rising, partial curve].
